In paper doi:10.1101/2022.12.06.519310:
No constants are given. Whether binding was seen depends on the method and setting. In cells and extracts the contact can be indirect. Some results given as binding are weak or reduced against the parent protein; the word gives no strength.

Amino acid sequences for entries named in this document (tags omitted).
UniProt Q9UBL3: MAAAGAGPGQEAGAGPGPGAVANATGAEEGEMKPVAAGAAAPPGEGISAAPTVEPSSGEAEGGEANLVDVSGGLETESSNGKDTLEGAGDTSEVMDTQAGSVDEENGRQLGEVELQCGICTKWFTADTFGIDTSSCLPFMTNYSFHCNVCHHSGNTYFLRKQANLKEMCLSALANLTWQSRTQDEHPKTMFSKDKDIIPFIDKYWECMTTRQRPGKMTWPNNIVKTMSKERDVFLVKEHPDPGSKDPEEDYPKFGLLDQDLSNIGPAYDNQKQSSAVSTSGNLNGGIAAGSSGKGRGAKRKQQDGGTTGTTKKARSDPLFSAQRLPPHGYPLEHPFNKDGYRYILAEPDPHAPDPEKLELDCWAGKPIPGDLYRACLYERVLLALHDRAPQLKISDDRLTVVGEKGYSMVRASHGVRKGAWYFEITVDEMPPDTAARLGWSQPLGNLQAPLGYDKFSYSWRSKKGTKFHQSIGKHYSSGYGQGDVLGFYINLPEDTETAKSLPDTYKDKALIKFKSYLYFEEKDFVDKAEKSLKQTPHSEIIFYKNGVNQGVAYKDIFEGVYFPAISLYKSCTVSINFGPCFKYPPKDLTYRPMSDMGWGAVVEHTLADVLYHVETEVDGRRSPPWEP
UniProt Q15291: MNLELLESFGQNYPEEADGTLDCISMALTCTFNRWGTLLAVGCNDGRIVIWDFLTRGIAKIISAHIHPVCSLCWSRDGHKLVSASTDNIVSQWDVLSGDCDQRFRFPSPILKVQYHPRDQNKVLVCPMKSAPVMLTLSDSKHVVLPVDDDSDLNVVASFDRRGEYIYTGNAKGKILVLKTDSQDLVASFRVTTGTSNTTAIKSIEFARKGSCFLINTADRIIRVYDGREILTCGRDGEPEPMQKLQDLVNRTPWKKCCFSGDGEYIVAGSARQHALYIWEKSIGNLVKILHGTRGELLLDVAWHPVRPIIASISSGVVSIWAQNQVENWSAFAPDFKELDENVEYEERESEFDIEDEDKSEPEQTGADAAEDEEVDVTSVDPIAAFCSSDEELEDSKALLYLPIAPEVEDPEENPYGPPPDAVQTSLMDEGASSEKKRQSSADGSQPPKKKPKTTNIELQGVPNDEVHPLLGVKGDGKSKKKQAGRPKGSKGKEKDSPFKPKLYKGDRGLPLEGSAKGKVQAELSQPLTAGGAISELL

Experiments:
[1] = target: T1, biotinylated H3 (1-10) Q5ser peptide; assay: pull-down
T1 sequence (peptide, serotonylated glutamine at 5 (Q5ser); biotin (position not stated)): ARTKQTARKS

[2] = target: T2, biotinylated H3 (1-10) unmodified peptide; assay: pull-down
T2 sequence (peptide, biotin (position not stated)): ARTKQTARKS

Substance: ASH2L, endogenous in HeLa nuclear extract (from UniProt Q9UBL3 1-628)
- binding [1]: binds
- binding [2]: binds

Substance: RBBP5, endogenous in HeLa nuclear extract (from UniProt Q15291 1-538)
- binding [1]: binds
- binding [2]: binds
